Here are results for 40 sequences from article PMC7862700.

The entries are a selection whose mix differs from that of the whole data set. At the low end of the ranking the order means little.

The target in this assay is T1, ELF5 (UniProt Q9UKW6-2).
T1 sequence: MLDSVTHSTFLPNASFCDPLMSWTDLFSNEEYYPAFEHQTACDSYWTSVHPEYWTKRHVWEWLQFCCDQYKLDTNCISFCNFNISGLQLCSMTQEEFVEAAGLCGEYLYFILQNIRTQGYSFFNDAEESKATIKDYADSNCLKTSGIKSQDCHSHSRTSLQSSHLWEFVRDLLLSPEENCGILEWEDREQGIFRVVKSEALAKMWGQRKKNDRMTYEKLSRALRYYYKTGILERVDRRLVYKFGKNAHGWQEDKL
Kind of assay: DAPPL (digital affinity profiling via proximity ligation, sequencing). As to conditions: 10 mM Tris-HCl pH 7.5, 50 mM NaCl, 1 mM DTT, 4% glycerol, room temperature, 30 min; GST-TFs on glutathione beads, 16-mer random dsDNA library, 0.1% …; high values mean tight binding; double strand, one strand shown; scale: fold enrichment (6-mer frequency, TF over GST control).
ATTCCG registered a binding signal of 2.17. Sequence CTATAC had a binding signal of 1.26. The figure for GTTTAC is 1.13; for TACTGC it is 1.17. Next, GAACTC: 1.32; CGACTT: 1.72; GGCTAG: 0.998.

CCCCCA: the binding signal turned out to be 1.24. Next, CGCCTC: 1.43; AGCCTC: 1.16; TTATGA: 1.09. As for GAATTC, the binding signal was determined as 1.32.

As to TTCAGC, the binding signal was 1.16. Next, CCCACG: 1.15. ACTTAT gave a binding signal of 1.38. The figure for TATGAA is 1.07; for CCGCTA it is 1.41; for ATTCCC it is 1.5. Next, GAAATA: 1.73; AAAGCG: 1.07; TTTTGA: 1. AAAGAA came in with a binding signal of 1.23. With TTGCAC, the binding signal was 1.22. The figure for TCGCTC is 1.25. The figure for AAGTTT is 1.55; for ATGACT it is 1.32; for ATCATC it is 1.17.

On to GATTTT, for which the binding signal worked out at 1.13. The figure for CCTCTC is 1.41; for AACTTA it is 1.25; for TCGCCT it is 1.33. The figure for TCCCTT is 1.72.

Sequence TAGCCC had a binding signal of 1.07. AGCCCC: the binding signal was found to be 1.01. CCTGGA displayed a binding signal of 1.74. Consider TTGCTA, for which the binding signal was found to be 1.21. Turning to CTAAAA, the binding signal amounted to 1.11. The figure for ACATCC is 3.25; for TCTGCC it is 1.31. Next, ATCGAA: 1.05.
